Laboratory results taken from paper PMC11886612.
These are yes or no findings as the source states them, for the method shown. Binding seen in cells or lysates may run through a third protein. Some binding calls cover weakened binding; strength is not graded here.

Protein sequences, listed by entry. Tags and fused reporters are not part of them. Lines headed by an entry give the natural chain unless they say otherwise; changes in a name come on top. Residues count along the entry.
UniProt Q16654, residues 335-411: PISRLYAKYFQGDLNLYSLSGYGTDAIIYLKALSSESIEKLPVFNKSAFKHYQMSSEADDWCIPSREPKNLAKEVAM

Biological target: PDK4 truncated mutant, region 335-411 (UniProt Q16654)
Experiment: co-IP; truncated mutants of Decr1 and PDK4; cells not given

binding: binds
B1: Decr1 truncated mutant, region 151-335 (domain or fragment, UniProt Q16698 151-335)
chain: SPTERLSPNAWKTITDIVLNGTAFVTLEIGKQLIKAQKGAAFLSITTIYAETGSGFVVPSASAKAGVEAMSKSLAAEWGKYGMRFNVIQPGPIKTKGAFSRLDPTGTFEKEMIGRIPCGRLGTVEELANLAAFLCSDYASWINGAVIKFDGGEEVLISGEFNDLRKVTKEQWDTIEELIRKTKGS
